# Laboratory results reported in paper PMC3792071.
# B1: LAP2β (protein, UniProt P42167 1-454)
# chain: MPEFLEDPSVLTKDKLKSELVANNVTLPAGEQRKDVYVQLYLQHLTARNRPPLPAGTNSKGPPDFSSDEEREPTPVLGSGAAAAGRSRAAVGRKATKKTDKPRQEDKDDLDVTELTNEDLLDQLVKYGVNPGPIVGTTRKLYEKKLLKLREQGTESRSSTPLPTISSSAENTRQNGSNDSDRYSDNEEDSKIELKLEKREPLKGRAKTPVTLKQRRVEHNQSYSQAGITETEWTSGSSKGGPLQALTRESTRGSRRTPRKRVETSEHFRIDGPVISESTPIAETIMASSNESLVVNRVTGNFKHASPILPITEFSDIPRRAPKKPLTRAEVGEKTEERRVERDILKEMFPYEASTPTGISASCRRPIKGAAGRPLELSDFRMEESFSSKYVPKYVPLADVKSEKTKKGRSIPVWIKILLFVVVAVFLFLVYQAMETNQVNPFSNFLHVDPRKSN
# Biological target: endogenous PP1 of HEK293 cells (isoform not given) (human (endogenous in HEK293))
# Test: co-IP; HEK293 cells immunoprecipitated with PP1 antibody bound to protein A-sepharose beads; blots with specific antibodies
binder,measurement,value
B1,binding,no binding

# No constants are given. Whether binding was seen depends on the method and setting. In cells and extracts the contact can be indirect.
